# Some of the results follow.
# What was measured:
# Test in all cases: glycan array binding signal (z-score within array); higher = stronger binding
# Settings in all cases: glycan notation: IUPAC condensed, linker removed
# [1] = target: Neu5Ac(a2-3)Gal(b1-3)[Fuc(a1-4)]GlcNAc
# Procedure, shortened: (§1)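 The binding signal is a Z-score computed within each array. Data were drawn from 3228 arrays in the Consortium for Functional Glycomics database, restricted to those with a known protein sequence. Scores were averaged over arrays of the same protein sequence at different concentrations or buffers, and over linkers, and negative values can be taken as non-binding.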
# [2] = target: Neu5Ac(a2-3)Gal(b1-3)[Fuc(a1-4)]GlcNAc(b1-3)Gal(b1-3)[Fuc(a1-4)]GlcNAc
# Procedure, shortened: as §1
# [3] = target: Neu5Ac(a2-3)Gal(b1-3)[Fuc(a1-4)]GlcNAc(b1-3)Gal(b1-4)[Fuc(a1-3)]GlcNAc
# Procedure, shortened: as §1
# [4] = target: Neu5Ac(a2-3)Gal(b1-3)[GlcNAc(b1-6)]GalNAc
# Procedure, shortened: as §1
# [5] = target: Neu5Ac(a2-3)Gal(b1-3)[Neu5Ac(a2-6)]GalNAc
# Procedure, shortened: as §1
# [6] = target: Neu5Ac(a2-3)Gal(b1-3)[Neu5Ac(a2-6)]GlcNAc(b1-3)[Fuc(a1-3)[Gal(b1-4)]GlcNAc(b1-6)]Gal(b1-4)Glc
# Procedure, shortened: as §1
# [7] = target: Neu5Ac(a2-3)Gal(b1-3)]Neu5Ac(a2-3)Gal(b1-4)]GlcNAc
# Procedure, shortened: as §1
# [8] = target: Neu5Ac(a2-3)Gal(b1-4)Glc
# Procedure, shortened: as §1
# [9] = target: Neu5Ac(a2-3)Gal(b1-4)GlcNAc
# Procedure, shortened: as §1
# [10] = target: Neu5Ac(a2-3)Gal(b1-4)GlcNAc(b1-2)Man
# Procedure, shortened: as §1
# [11] = target: Neu5Ac(a2-3)Gal(b1-4)GlcNAc(b1-2)Man(a1-3)[GlcNAc(b1-4)][Neu5Ac(a2-3)Gal(b1-4)GlcNAc(b1-2)Man(a1-6)]Man(b1-4)GlcNAc(b1-4)GlcNAc
# Procedure, shortened: as §1
# [12] = target: Neu5Ac(a2-3)Gal(b1-4)GlcNAc(b1-2)Man(a1-3)[Neu5Ac(a2-3)Gal(b1-4)GlcNAc(b1-2)Man(a1-6)]Man(b1-4)GlcNAc(b1-4)GlcNAc
# Procedure, shortened: as §1
# [13] = target: Neu5Ac(a2-3)Gal(b1-4)GlcNAc(b1-2)Man(a1-3)[Neu5Ac(a2-3)Gal(b1-4)GlcNAc(b1-2)Man(a1-6)]Man(b1-4)GlcNAc(b1-4)[Fuc(a1-6)]GlcNAc
# Procedure, shortened: as §1
# [14] = target: Neu5Ac(a2-3)Gal(b1-4)GlcNAc(b1-2)Man(a1-3)[Neu5Ac(a2-6)Gal(b1-4)GlcNAc(b1-2)Man(a1-6)]Man(b1-4)GlcNAc(b1-4)GlcNAc
# Procedure, shortened: as §1
# [15] = target: Neu5Ac(a2-3)Gal(b1-4)GlcNAc(b1-2)[Neu5Ac(a2-3)Gal(b1-4)GlcNAc(b1-4)]Man(a1-3)[GlcNAc(b1-4)][Neu5Ac(a2-3)Gal(b1-4)GlcNAc(b1-2)[Neu5Ac(a2-3)Gal(b1-4)GlcNAc(b1-6)]Man(a1-6)]Man(b1-4)GlcNAc(b1-4)GlcNAc
# Procedure, shortened: as §1
# [16] = target: Neu5Ac(a2-3)Gal(b1-4)GlcNAc(b1-2)[Neu5Ac(a2-3)Gal(b1-4)GlcNAc(b1-4)]Man(a1-3)[GlcNAc(b1-4)][Neu5Ac(a2-3)Gal(b1-4)GlcNAc(b1-4)Man(a1-6)]Man(b1-4)GlcNAc(b1-4)GlcNAc
# Procedure, shortened: as §1
# [17] = target: Neu5Ac(a2-3)Gal(b1-4)GlcNAc(b1-2)[Neu5Ac(a2-3)Gal(b1-4)GlcNAc(b1-6)]Man(a1-6)[Neu5Ac(a2-3)Gal(b1-4)GlcNAc(b1-2)Man(a1-3)]Man(b1-4)GlcNAc(b1-4)GlcNAc
# Procedure, shortened: as §1
# [18] = target: Neu5Ac(a2-3)Gal(b1-4)GlcNAc(b1-2)[Neu5Ac(a2-3)Gal(b1-4)GlcNAc(b1-6)]Man(a1-6)[Neu5Ac(a2-3)Gal(b1-4)GlcNAc(b1-2)Man(a1-3)][GlcNAc(b1-4)]Man(b1-4)GlcNAc(b1-4)GlcNAc
# Procedure, shortened: as §1
# [19] = target: Neu5Ac(a2-3)Gal(b1-4)GlcNAc(b1-3)Gal
# Procedure, shortened: as §1
# [20] = target: Neu5Ac(a2-3)Gal(b1-4)GlcNAc(b1-3)Gal(b1-3)GlcNAc
# Procedure, shortened: as §1
# [21] = target: Neu5Ac(a2-3)Gal(b1-4)GlcNAc(b1-3)Gal(b1-4)GlcNAc
# Procedure, shortened: as §1
# [22] = target: Neu5Ac(a2-3)Gal(b1-4)GlcNAc(b1-3)Gal(b1-4)GlcNAc(b1-2)Man(a1-3)[Neu5Ac(a2-3)Gal(b1-4)GlcNAc(b1-3)Gal(b1-4)GlcNAc(b1-2)Man(a1-6)]Man(b1-4)GlcNAc(b1-4)GlcNAc
# Procedure, shortened: as §1
# [23] = target: Neu5Ac(a2-3)Gal(b1-4)GlcNAc(b1-3)Gal(b1-4)GlcNAc(b1-3)Gal(b1-4)GlcNAc
# Procedure, shortened: as §1
# [24] = target: Neu5Ac(a2-3)Gal(b1-4)GlcNAc(b1-3)Gal(b1-4)GlcNAc(b1-3)Gal(b1-4)GlcNAc(b1-2)Man(a1-3)[Neu5Ac(a2-3)Gal(b1-4)GlcNAc(b1-3)Gal(b1-4)GlcNAc(b1-3)Gal(b1-4)GlcNAc(b1-2)Man(a1-6)]GalNAc
# Procedure, shortened: as §1
# [25] = target: Neu5Ac(a2-3)Gal(b1-4)GlcNAc(b1-3)Gal(b1-4)GlcNAc(b1-3)GalNAc
# Procedure, shortened: as §1
# [26] = target: Neu5Ac(a2-3)Gal(b1-4)GlcNAc(b1-3)Gal(b1-4)GlcNAc(b1-3)[Neu5Ac(a2-3)Gal(b1-4)GlcNAc(b1-3)Gal(b1-4)GlcNAc(b1-6)]GalNAc
# Procedure, shortened: as §1
# [27] = target: Neu5Ac(a2-3)Gal(b1-4)GlcNAc(b1-3)Gal(b1-4)GlcNAc(b1-6)[Gal(b1-3)]GalNAc
# Procedure, shortened: as §1
# [28] = target: Neu5Ac(a2-3)Gal(b1-4)GlcNAc(b1-3)Gal(b1-4)[Fuc(a1-3)]GlcNAc
# Procedure, shortened: as §1
# [29] = target: Neu5Ac(a2-3)Gal(b1-4)GlcNAc(b1-3)GalNAc
# Procedure, shortened: as §1
# [30] = target: Neu5Ac(a2-3)Gal(b1-4)GlcNAc(b1-3)[Neu5Ac(a2-3)Gal(b1-4)GlcNAc(b1-6)]GalNAc
# Procedure, shortened: as §1
# [31] = target: Neu5Ac(a2-3)Gal(b1-4)GlcNAc(b1-6)GalNAc
# Procedure, shortened: as §1
# [32] = target: Neu5Ac(a2-3)Gal(b1-4)GlcNAc(b1-6)[Gal(b1-3)]GalNAc
# Procedure, shortened: as §1
# [33] = target: Neu5Ac(a2-3)Gal(b1-4)GlcNAc(b1-6)[Neu5Ac(a2-3)Gal(b1-3)]GalNAc
# Procedure, shortened: as §1
# [34] = target: Neu5Ac(a2-3)Gal(b1-4)GlcNAc6S
# Procedure, shortened: as §1
# [35] = target: Neu5Ac(a2-3)Gal(b1-4)[Fuc(a1-3)]GlcNAc
# Procedure, shortened: as §1
# [36] = target: Neu5Ac(a2-3)Gal(b1-4)[Fuc(a1-3)]GlcNAc(b1-2)Man
# Procedure, shortened: as §1
# [37] = target: Neu5Ac(a2-3)Gal(b1-4)[Fuc(a1-3)]GlcNAc(b1-3)Gal
# Procedure, shortened: as §1
# [38] = target: Neu5Ac(a2-3)Gal(b1-4)[Fuc(a1-3)]GlcNAc(b1-3)Gal(b1-4)GlcNAc
# Procedure, shortened: as §1
# [39] = target: Neu5Ac(a2-3)Gal(b1-4)[Fuc(a1-3)]GlcNAc(b1-3)Gal(b1-4)[Fuc(a1-3)]GlcNAc(b1-3)Gal(b1-4)[Fuc(a1-3)]GlcNAc
# Procedure, shortened: as §1
# [40] = target: Neu5Ac(a2-3)Gal(b1-4)[Fuc(a1-3)]GlcNAc(b1-3)GalNAc
# Procedure, shortened: as §1
# [41] = target: Neu5Ac(a2-3)Gal(b1-4)[Fuc(a1-3)]GlcNAc(b1-6)[Gal(b1-3)]GalNAc
# Procedure, shortened: as §1
# [42] = target: Neu5Ac(a2-3)Gal(b1-4)[Fuc(a1-3)]GlcNAc(b1-6)[Neu5Ac(a2-3)Gal(b1-3)]GalNAc
# Procedure, shortened: as §1
# [43] = target: Neu5Ac(a2-3)Gal(b1-4)[Fuc(a1-3)]GlcNAc6S
# Procedure, shortened: as §1
# [44] = target: Neu5Ac(a2-3)Gal6S(b1-4)GlcNAc
# Procedure, shortened: as §1
# [45] = target: Neu5Ac(a2-3)Gal6S(b1-4)[Fuc(a1-3)]GlcNAc
# Procedure, shortened: as §1
binder,measurement,setting,value
GS7807G-bfa-506-18-506 (Bacteroides fragilis) (protein) ASCDKFDEINTDPDATTKVTSSLLATGLLLDITSSSASKSFIYDELLAKQMAWGESMEDYQYNVFGRSGFGGYTTLINAQKMVESVSDDNVNAYDGLAHFIKAYKIFYMSMEMGDLPYEEALQGELGLVRPKYNTQKEVMNFILSDLETAYELFSTAKDFDGDPILGGSISKWKKATTAFQLKVLMHLSKKESDADLKVKERFARIVASGSLMESNEDNLQMKYADKANTVYPFHNTNTKHAGYAMLSTMLIDKFKATGDIRMFYYAKPAKAKLNEGVTADSWDAYIGTDPSLPFEQIEKAYATEQYSGFNARYTDYPSGEPVVRLGYAEQNFILAEAAVRGWISGDASAYYKKAIRAHMEFIASNTPDEEVYHHGHPITEEAIAAFLETPAIQLSGEKEEDIEKILTQRYLASFMQHPYDVYYDYRRTGYPVLPINPATNRNTMNDRLPMRWMYPKSESDYNLEHQNEALERQFGGVDDVNKLMWILQ,glycan array binding signal (z-score),[1],-0.571
same,glycan array binding signal (z-score),[2],0.089
same,glycan array binding signal (z-score),[3],-0.742
same,glycan array binding signal (z-score),[4],-0.969
same,glycan array binding signal (z-score),[5],-0.671
same,glycan array binding signal (z-score),[6],-0.665
same,glycan array binding signal (z-score),[7],-0.87
same,glycan array binding signal (z-score),[8],-0.792
same,glycan array binding signal (z-score),[9],-0.783
same,glycan array binding signal (z-score),[10],1.1
same,glycan array binding signal (z-score),[11],-0.522
same,glycan array binding signal (z-score),[12],-0.303
same,glycan array binding signal (z-score),[13],-0.269
same,glycan array binding signal (z-score),[14],-0.387
same,glycan array binding signal (z-score),[15],-0.526
same,glycan array binding signal (z-score),[16],-0.969
same,glycan array binding signal (z-score),[17],0.452
same,glycan array binding signal (z-score),[18],-0.872
same,glycan array binding signal (z-score),[19],-0.67
same,glycan array binding signal (z-score),[20],-0.731
same,glycan array binding signal (z-score),[21],-0.338
same,glycan array binding signal (z-score),[22],0.213
same,glycan array binding signal (z-score),[23],-0.109
same,glycan array binding signal (z-score),[24],0.659
same,glycan array binding signal (z-score),[25],-0.769
same,glycan array binding signal (z-score),[26],0.403
same,glycan array binding signal (z-score),[27],-0.419
same,glycan array binding signal (z-score),[28],-0.606
same,glycan array binding signal (z-score),[29],-0.885
same,glycan array binding signal (z-score),[30],-0.859
same,glycan array binding signal (z-score),[31],-0.022
same,glycan array binding signal (z-score),[32],-0.588
same,glycan array binding signal (z-score),[33],-1.04
same,glycan array binding signal (z-score),[34],-0.455
same,glycan array binding signal (z-score),[35],-0.878
same,glycan array binding signal (z-score),[36],-1.04
same,glycan array binding signal (z-score),[37],-0.938
same,glycan array binding signal (z-score),[38],1.72
same,glycan array binding signal (z-score),[39],-1.06
same,glycan array binding signal (z-score),[40],-0.063
same,glycan array binding signal (z-score),[41],0.626
same,glycan array binding signal (z-score),[42],0.199
same,glycan array binding signal (z-score),[43],-0.532
same,glycan array binding signal (z-score),[44],-0.898
same,glycan array binding signal (z-score),[45],-1.11

# 3 records picked at random from the list so far, as already listed:
binder,measurement,setting,value
GS7807G-bfa-506-18-506 (Bacteroides fragilis) (protein) ASCDKFDEINTDPDATTKVTSSLLATGLLLDITSSSASKSFIYDELLAKQMAWGESMEDYQYNVFGRSGFGGYTTLINAQKMVESVSDDNVNAYDGLAHFIKAYKIFYMSMEMGDLPYEEALQGELGLVRPKYNTQKEVMNFILSDLETAYELFSTAKDFDGDPILGGSISKWKKATTAFQLKVLMHLSKKESDADLKVKERFARIVASGSLMESNEDNLQMKYADKANTVYPFHNTNTKHAGYAMLSTMLIDKFKATGDIRMFYYAKPAKAKLNEGVTADSWDAYIGTDPSLPFEQIEKAYATEQYSGFNARYTDYPSGEPVVRLGYAEQNFILAEAAVRGWISGDASAYYKKAIRAHMEFIASNTPDEEVYHHGHPITEEAIAAFLETPAIQLSGEKEEDIEKILTQRYLASFMQHPYDVYYDYRRTGYPVLPINPATNRNTMNDRLPMRWMYPKSESDYNLEHQNEALERQFGGVDDVNKLMWILQ,glycan array binding signal (z-score),[24],0.659
same,glycan array binding signal (z-score),[28],-0.606
same,glycan array binding signal (z-score),[17],0.452

# Reference: the supplement of paper PMC8728848
